Measurements published in publication PMC8708704, “Discovery of New Chemical Tools against Leishmania amazonensis via the MMV Pathogen Box” (Pharmaceuticals, 2021).

System: Leishmania amazonensis promastigotes
Assay: Leishmanicidal activity against promastigotes (alamarBlue assay; screening at 10 µM and IC50)
Format: cell-based
Settings: first screening, 72 h
Experimental: For the experiments, promastigotes of Leishmania amazonensis strain (MHOM/BR/77/LTB0016) were used; they were maintained in RPMI 1640 medium (Gibco, Massachusetts, USA) at 26 °C. […] The concentration of DMSO never exceeded 0.1% (v/v), avoiding the effect on the parasite’s proliferation or morphology. Subsequently, the plates were analyzed on an EnSpire multimode plate reader (PerkinElmer, MA, USA) to measure their fluorescence after 72 h. […] To this end, serial dilutions were performed in 96 well plates, and incubated with the parasites for 72 h after adding alamarBlue®. Next, the plates were analyzed on the EnSpire plate reader and the IC50 values were calculated by using SigmaPlot 14.0 (Systat Software Inc., Chicago, IL, USA). Each concentration was tested in duplicate and in three independent experiments for all the compounds.

`CN1CCCC1CCO[C@](C)(c1ccccc1)c1ccc(Cl)cc1` (stereo partly shown) [MMV637229] was tested, and the “% of inhibition at 10 µM (against L. amazonensis promastigotes)” value was 61%.
